No constants are given. Whether binding was seen depends on the method and setting. In cells and extracts the contact can be indirect. A result given as binding can be weak or reduced; the word gives no strength. For some of these results: Where a sequence is shown, tags or fusion partners need not be part of it.
Assays:
[1] = target: bone morphogenetic protein 2 (BMP2), endogenous in human renal interstitial fibroblasts (human (endogenous in hRIFs)) (UniProt P12643); assay: co-IP; anti-BMP2 or IgG immune-precipitates from hRIFs transfected with Len-sh-ctrl or Len-sh-OMD; blots for SMURF1, SMURF2, NEDD4
Flag-OMD = target: T1, Flag-OMD (UniProt Q99983); assay: co-IP; hRIFs transfected with p-HA-BMP2 or/and p-Flag-OMD; Flag-OMD and HA-BMP2 analysed by WB in immune-precipitates
T1 sequence: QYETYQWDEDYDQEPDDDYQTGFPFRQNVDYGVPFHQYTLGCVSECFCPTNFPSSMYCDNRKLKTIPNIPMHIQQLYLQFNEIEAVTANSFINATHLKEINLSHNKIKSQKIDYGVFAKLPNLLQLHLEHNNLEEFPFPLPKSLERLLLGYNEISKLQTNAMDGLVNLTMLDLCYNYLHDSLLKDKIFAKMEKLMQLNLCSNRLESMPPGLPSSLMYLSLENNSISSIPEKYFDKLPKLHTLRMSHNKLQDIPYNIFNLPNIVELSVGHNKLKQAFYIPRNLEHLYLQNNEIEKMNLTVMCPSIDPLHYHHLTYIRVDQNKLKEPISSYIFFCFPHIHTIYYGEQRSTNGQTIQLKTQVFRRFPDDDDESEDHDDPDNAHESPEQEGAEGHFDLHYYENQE

Amino acid sequences for entries named in this document (tags omitted). A change or cut given only in a name is not applied to a line headed by its entry.
UniProt P12643: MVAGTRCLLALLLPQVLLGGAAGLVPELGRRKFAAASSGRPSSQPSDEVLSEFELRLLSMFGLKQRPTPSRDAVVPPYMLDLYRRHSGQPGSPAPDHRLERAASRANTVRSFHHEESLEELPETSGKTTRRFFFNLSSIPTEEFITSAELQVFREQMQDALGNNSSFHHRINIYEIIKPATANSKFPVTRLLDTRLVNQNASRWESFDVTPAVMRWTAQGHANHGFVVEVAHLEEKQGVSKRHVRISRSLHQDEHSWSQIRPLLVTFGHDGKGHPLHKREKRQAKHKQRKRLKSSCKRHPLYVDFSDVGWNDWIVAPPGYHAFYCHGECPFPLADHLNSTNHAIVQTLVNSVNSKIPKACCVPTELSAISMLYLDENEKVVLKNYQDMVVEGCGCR
UniProt P46934: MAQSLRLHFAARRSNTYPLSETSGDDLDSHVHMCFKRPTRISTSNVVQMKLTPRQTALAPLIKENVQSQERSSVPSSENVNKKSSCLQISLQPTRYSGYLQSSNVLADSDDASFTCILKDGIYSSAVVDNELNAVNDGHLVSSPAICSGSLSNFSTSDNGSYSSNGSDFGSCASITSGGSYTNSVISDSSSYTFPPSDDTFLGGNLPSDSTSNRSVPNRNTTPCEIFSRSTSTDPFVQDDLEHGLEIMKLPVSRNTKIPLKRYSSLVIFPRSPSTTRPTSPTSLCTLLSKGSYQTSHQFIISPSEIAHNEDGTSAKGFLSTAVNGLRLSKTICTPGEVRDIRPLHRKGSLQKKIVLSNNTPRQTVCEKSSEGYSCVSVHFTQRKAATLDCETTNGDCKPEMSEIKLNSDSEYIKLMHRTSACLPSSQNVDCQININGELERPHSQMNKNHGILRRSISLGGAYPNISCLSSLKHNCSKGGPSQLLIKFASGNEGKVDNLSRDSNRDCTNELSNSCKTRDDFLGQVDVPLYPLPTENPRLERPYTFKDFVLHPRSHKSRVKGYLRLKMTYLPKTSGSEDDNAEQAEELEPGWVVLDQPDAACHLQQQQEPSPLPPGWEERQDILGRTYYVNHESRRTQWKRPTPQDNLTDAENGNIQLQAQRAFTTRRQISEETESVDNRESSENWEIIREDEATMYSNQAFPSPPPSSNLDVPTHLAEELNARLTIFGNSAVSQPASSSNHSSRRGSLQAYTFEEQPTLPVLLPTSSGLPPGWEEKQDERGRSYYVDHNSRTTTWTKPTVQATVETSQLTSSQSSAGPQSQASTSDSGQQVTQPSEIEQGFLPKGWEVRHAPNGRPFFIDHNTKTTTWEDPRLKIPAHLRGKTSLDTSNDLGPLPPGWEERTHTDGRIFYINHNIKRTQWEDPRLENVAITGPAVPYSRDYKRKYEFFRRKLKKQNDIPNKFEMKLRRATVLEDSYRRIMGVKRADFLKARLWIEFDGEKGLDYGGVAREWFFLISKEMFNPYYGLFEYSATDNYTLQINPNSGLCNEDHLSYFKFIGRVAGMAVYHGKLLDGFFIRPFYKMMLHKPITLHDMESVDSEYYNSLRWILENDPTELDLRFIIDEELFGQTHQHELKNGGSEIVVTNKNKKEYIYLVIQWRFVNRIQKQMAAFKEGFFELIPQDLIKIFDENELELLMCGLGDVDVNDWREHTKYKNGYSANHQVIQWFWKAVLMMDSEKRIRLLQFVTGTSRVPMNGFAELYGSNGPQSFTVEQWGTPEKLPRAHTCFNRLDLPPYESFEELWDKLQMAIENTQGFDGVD
UniProt Q9HCE7: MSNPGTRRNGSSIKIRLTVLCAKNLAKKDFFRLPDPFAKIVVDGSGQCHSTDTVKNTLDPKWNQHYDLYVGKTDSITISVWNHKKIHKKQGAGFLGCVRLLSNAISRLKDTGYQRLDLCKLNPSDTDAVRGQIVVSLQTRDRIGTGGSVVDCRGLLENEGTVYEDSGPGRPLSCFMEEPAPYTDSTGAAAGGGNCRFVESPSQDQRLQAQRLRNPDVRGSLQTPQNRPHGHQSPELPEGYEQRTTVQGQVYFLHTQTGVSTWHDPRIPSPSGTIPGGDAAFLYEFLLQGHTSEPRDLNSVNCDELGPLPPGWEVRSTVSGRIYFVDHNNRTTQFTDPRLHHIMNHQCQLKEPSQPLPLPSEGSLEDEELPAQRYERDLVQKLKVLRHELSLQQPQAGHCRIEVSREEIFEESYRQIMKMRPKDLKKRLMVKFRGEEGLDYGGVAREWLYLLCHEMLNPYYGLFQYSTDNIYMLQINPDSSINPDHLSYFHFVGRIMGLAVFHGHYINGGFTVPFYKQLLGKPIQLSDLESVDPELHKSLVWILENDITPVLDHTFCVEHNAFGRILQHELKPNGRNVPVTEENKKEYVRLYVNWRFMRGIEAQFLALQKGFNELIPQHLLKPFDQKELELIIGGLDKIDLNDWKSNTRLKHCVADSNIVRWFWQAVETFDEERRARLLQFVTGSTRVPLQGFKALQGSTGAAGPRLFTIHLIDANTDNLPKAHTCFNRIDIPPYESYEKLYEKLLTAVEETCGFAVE
UniProt Q9HAU4: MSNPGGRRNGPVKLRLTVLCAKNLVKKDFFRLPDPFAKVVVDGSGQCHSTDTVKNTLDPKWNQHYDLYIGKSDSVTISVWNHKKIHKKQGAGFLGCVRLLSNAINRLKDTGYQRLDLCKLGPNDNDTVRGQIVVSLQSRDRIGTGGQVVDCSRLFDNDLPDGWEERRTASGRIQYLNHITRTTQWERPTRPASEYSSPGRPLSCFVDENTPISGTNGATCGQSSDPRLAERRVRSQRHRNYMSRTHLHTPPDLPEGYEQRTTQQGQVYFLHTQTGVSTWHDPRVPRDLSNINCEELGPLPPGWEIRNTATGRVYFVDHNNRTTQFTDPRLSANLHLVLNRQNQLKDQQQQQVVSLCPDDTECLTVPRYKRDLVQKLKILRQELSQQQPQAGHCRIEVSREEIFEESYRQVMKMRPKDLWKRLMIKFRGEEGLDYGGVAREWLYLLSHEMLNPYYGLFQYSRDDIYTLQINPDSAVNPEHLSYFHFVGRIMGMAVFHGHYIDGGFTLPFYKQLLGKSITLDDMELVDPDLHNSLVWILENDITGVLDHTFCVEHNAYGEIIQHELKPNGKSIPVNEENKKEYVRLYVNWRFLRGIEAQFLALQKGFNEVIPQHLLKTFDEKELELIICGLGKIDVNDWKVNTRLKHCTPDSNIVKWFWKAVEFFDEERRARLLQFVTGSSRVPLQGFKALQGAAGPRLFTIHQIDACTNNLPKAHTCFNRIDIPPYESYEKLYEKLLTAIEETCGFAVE

Substance | binding [1] | binding (Flag-OMD)
E3 ubiquitin ligase NEDD4 (from UniProt P46934 1-1319) (enzyme) | binds | 
E3 ubiquitin ligase SMURF1 (from UniProt Q9HCE7 1-757) (enzyme) | no binding | 
HA-BMP2 (from UniProt P12643) |  | binds
E3 ubiquitin ligase SMURF2 (from UniProt Q9HAU4 1-748) (enzyme) | binds | 

Reference: publication PMC11516157
